The target of this assay is Gt-1 ORF2 MAPPIT (hepatitis E virus genotype 1 (Sar-55)) (UniProt P33426). In words: two-hybrid.

Protein sequences, listed by entry. Tags and fused reporters are not part of them. Residues count along the entry.
UniProt P33426, residues 20-660: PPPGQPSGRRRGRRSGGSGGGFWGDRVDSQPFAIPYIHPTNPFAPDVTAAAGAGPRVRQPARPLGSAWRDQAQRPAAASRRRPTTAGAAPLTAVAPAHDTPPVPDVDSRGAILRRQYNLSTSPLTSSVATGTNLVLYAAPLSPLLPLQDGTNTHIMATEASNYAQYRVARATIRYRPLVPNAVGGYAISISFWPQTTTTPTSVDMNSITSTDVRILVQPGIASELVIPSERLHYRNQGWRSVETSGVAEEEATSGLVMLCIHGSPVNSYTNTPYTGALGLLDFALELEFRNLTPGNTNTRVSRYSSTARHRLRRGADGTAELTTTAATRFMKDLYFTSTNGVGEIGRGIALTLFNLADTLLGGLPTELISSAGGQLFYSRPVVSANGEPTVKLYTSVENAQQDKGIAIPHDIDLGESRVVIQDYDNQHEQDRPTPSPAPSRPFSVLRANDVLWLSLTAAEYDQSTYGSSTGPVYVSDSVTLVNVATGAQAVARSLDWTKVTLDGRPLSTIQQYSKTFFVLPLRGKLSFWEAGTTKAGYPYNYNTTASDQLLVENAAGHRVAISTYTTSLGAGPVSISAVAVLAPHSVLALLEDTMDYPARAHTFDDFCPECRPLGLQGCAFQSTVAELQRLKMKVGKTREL
UniProt O43570, residues 25-354: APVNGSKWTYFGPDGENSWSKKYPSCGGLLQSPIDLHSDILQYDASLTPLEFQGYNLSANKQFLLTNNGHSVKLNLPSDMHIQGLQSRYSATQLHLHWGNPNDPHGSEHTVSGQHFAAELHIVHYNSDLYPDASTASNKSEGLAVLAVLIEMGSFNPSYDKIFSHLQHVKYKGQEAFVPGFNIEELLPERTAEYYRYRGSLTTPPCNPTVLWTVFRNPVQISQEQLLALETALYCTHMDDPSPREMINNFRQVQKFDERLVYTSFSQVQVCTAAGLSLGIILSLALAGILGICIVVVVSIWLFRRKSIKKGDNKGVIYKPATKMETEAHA

These are yes or no findings as the source states them, for the method shown. Some binding calls cover weakened binding; strength is not graded here.

In the case of CA12 (from UniProt O43570 25-354), the binding result is reported as “binds”.

B1: ADCY3 (protein, UniProt O60266 1-1144)
chain: MPRNQGFSEPEYSAEYSAEYSVSLPSDPDRGVGRTHEISVRNSGSCLCLPRFMRLTFVPESLENLYQTYFKRQRHETLLVLVVFAALFDCYVVVMCAVVFSSDKLASLAVAGIGLVLDIILFVLCKKGLLPDRVTRRVLPYVLWLLITAQIFSYLGLNFARAHAASDTVGWQVFFVFSFFITLPLSLSPIVIISVVSCVVHTLVLGVTVAQQQQEELKGMQLLREILANVFLYLCAIAVGIMSYYMADRKHRKAFLEARQSLEVKMNLEEQSQQQENLMLSILPKHVADEMLKDMKKDESQKDQQQFNTMYMYRHENVSILFADIVGFTQLSSACSAQELVKLLNELFARFDKLAAKYHQLRIKILGDCYYCICGLPDYREDHAVCSILMGLAMVEAISYVREKTKTGVDMRVGVHTGTVLGGVLGQKRWQYDVWSTDVTVANKMEAGGIPGRVHISQSTMDCLKGEFDVEPGDGGSRCDYLEEKGIETYLIIASKPEVKKTATQNGLNGSALPNGAPASSKSSSPALIETKEPNGSAHSSGSTSEKPEEQDAQADNPSFPNPRRRLRLQDLADRVVDASEDEHELNQLLNEALLERESAQVVKKRNTFLLSMRFMDPEMETRYSVEKEKQSGAAFSCSCVVLLCTALVEILIDPWLMTNYVTFMVGEILLLILTICSLAAIFPRAFPKKLVAFSTWIDRTRWARNTWAMLAIFILVMANVVDMLSCLQYYTGPSNATAGMETEGSCLENPKYYNYVAVLSLIATIMLVQVSHMVKLTLMLLVAGAVATINLYAWRPVFDEYDHKRFREHDLPMVALEQMQGFNPGLNGTDRLPLVPSKYSMTVMVFLMMLSFYYFSRHVEKLARTLFLWKIEVHDQKERVYEMRRWNEALVTNMLPEHVARHFLGSKKRDEELYSQTYDEIGVMFASLPNFADFYTEESINNGGIECLRFLNEIISDFDSLLDNPKFRVITKIKTIGSTYMAASGVTPDVNTNGFASSNKEDKSERERWQHLADLADFALAMKDTLTNINNQSFNNFMLRIGMNKGGVLAGVIGARKPHYDIWGNTVNVASRMESTGVMGNIQVVEETQVILREYGFRFVRRGPIFVKGKGELLTFFLKGRDKLATFPNGPSVTLPHQVVDNS
On to B1, for which the binding result was “binds”.

For the origin of these results see PMC10748205.
